# Measurements as given in the supplement of paper PMC4604168 (melanoma cell lines).
# This is one part of the list. Single values are uncertain, as repeats are few or missing.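 Imaging used 1,536-well plates; nuclei positive for cleaved PARP by antibody were divided by total DNA-stained nuclei to yield the apoptosis fraction. Doses for screening kept most cells viable, and cell lines differ markedly in resting and induced cleaved-PARP levels.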
# Key:
# Assay in all cases: cleaved PARP positive nuclei fraction relative to DMSO control; melanoma cells; higher = more apoptosis
# Conditions in all cases: library dose: low library concentration; 72 h
# 501Mel = system: 501Mel
# A101D = system: A101D
# A2058 = system: A2058
# A375 = system: A375
# C32 = system: C32
# CBRC008 = system: CBRC008 (line from a melanoma biopsy)
# CBRC014 = system: CBRC014 (line from a melanoma biopsy)
# CBRC016 = system: CBRC016 (line from a melanoma biopsy)
# CBRC017 = system: CBRC017 (line from a melanoma biopsy)
# CBRC034 = system: CBRC034 (line from a melanoma biopsy)
# COLO792 = system: COLO792
# COLO800 = system: COLO800
# COLO829 = system: COLO829
# G361 = system: G361
# IPC-298 = system: IPC-298
# IST-MEL1 = system: IST-MEL1
# LB2518-MEL = system: LB2518-MEL
# LOXIMVI = system: LOXIMVI
# MEL-HO = system: MEL-HO
Structure (SMILES),cleaved PARP positive nuclei fraction (501Mel) [%],cleaved PARP positive nuclei fraction (A101D) [%],cleaved PARP positive nuclei fraction (A2058) [%],cleaved PARP positive nuclei fraction (A375) [%],cleaved PARP positive nuclei fraction (C32) [%],cleaved PARP positive nuclei fraction (CBRC008) [%],cleaved PARP positive nuclei fraction (CBRC014) [%],cleaved PARP positive nuclei fraction (CBRC016) [%],cleaved PARP positive nuclei fraction (CBRC017) [%],cleaved PARP positive nuclei fraction (CBRC034) [%],cleaved PARP positive nuclei fraction (COLO792) [%],cleaved PARP positive nuclei fraction (COLO800) [%],cleaved PARP positive nuclei fraction (COLO829) [%],cleaved PARP positive nuclei fraction (G361) [%],cleaved PARP positive nuclei fraction (IPC-298) [%],cleaved PARP positive nuclei fraction (IST-MEL1) [%],cleaved PARP positive nuclei fraction (LB2518-MEL) [%],cleaved PARP positive nuclei fraction (LOXIMVI) [%],cleaved PARP positive nuclei fraction (MEL-HO) [%]
"Cn1sc(=O)n(Cc2ccccc2)c1=O + Cc1nc(Nc2ncc(C(=O)Nc3c(C)cccc3Cl)s2)cc(N2CCN(CCO)CC2)n1 [dasatanib] (first compound 0.4 µM, partner dose 0.004 µM)",63.9,102,87.6,129,91.9,45.3,93.5,116,82.2,34.3,85.3,66.3,179,37.5,128,82.6,54.6,158,39.6
"CCN(CC)CCNC(=O)c1c(C)[nH]c(/C=C2\C(=O)Nc3ccc(F)cc32)c1C [sunitinib] + NC1(c2ccc(-c3nc4ccn5c(=O)[nH]nc5c4cc3-c3ccccc3)cc2)CCC1 [MK2206] (first compound 0.4 µM, partner dose 0.4 µM)",132,147,193,120,84.9,178,80.5,49.6,100,74.9,95.9,190,68.6,113,92.2,202,72.8,23,203
"CCCCCCCCc1ccc(CCC(N)(CO)CO)cc1 [fingolimod] + CO[C@H]1C[C@@H]2CC[C@@H](C)[C@@](O)(O2)C(=O)C(=O)N2CCCC[C@H]2C(=O)O[C@H]([C@H](C)C[C@@H]2CC[C@@H](OCCO)[C@H](OC)C2)CC(=O)[C@H](C)/C=C(\C)[C@@H](O)[C@@H](OC)C(=O)[C@H](C)C[C@H](C)/C=C/C=C/C=C/1C [everolimus] (first compound 2 µM, partner dose 0.02 µM)",14000,131,156,3960,94.4,76.8,141,42.9,160,43.5,117,147,258,23.2,116,180,129,260,198
"C[C@]1(O)C[C@@H](c2nc(-c3ccc4ccc(-c5ccccc5)nc4c3)c3c(N)nccn32)C1 + C#Cc1cccc(Nc2ncnc3cc(OCCOC)c(OCCOC)cc23)c1 [erlotinib] (first compound 0.4 µM, partner dose 0.8 µM)",111,201,101,618,72.4,170,116,129,90.3,109,83.3,71.7,88.4,81.2,183,124,212,84.6,87.3
"CS(=O)(=O)c1ccc(C(=O)Nc2ccc(Cl)c(-c3ccccn3)c2)c(Cl)c1 [vismodegib] + Cn1nnc2c(C(N)=O)ncn2c1=O [temozolomide] (first compound 1 µM, partner dose 2 µM)",88.8,51.4,183,122,68.6,86,104,179,80.5,107,91.1,73.4,233,38.1,94.9,134,105,30.7,97.6
"NC1(c2ccc(-c3nc4ccn5c(=O)[nH]nc5c4cc3-c3ccccc3)cc2)CCC1 + CC(=O)c1c(C)c2cnc(Nc3ccc(N4CCNCC4)cn3)nc2n(C2CCCC2)c1=O [palbociclib] (first compound 0.4 µM, partner dose 0.04 µM)",159,132,131,282,122,155,123,31.9,113,103,160,106,101,139,47.2,126,152,91.2,71.7
"CCN(CC)CCNC(=O)c1c(C)[nH]c(/C=C2\C(=O)Nc3ccc(F)cc32)c1C [sunitinib] + O=C(O)c1ccc2c(c1)nc(Nc1cccc(Cl)c1)c1ccncc12 [CX4945] (first compound 0.4 µM, partner dose 0.4 µM)",95.8,126,295,286,193,127,108,195,112,67.2,122,82.5,100,179,59.3,86.9,208,129,131
"NC(=O)c1ccc(N(C(N)=O)c2c(F)cccc2F)nc1-c1ccc(F)cc1F + C=CCNC1=C2C[C@@H](C)C[C@H](OC)[C@H](O)[C@@H](C)/C=C(\C)[C@H](OC(N)=O)[C@@H](OC)/C=C\C=C(/C)C(=O)NC(=CC1=O)C2=O [Tanespimycin] (first compound 0.4 µM, partner dose 0.002 µM)",47.7,102,155,135,88.6,57.8,119,66.5,113,76.8,59.6,83.7,78.6,130,42.6,209,104,31.5,107
"NC1(c2ccc(-c3nc4ccn5c(=O)[nH]nc5c4cc3-c3ccccc3)cc2)CCC1 + Nc1ccn([C@@H]2O[C@H](CO)[C@@H](O)C2(F)F)c(=O)n1 [gemcitabine] (first compound 0.4 µM, partner dose 0.0004 µM)",138,49.4,148,140,325,251,140,1120,109,159,201,26.3,78.7,195,152,195,60.2,56.9,90.2
"CC1(C)CCC(c2ccc(Cl)cc2)=C(CN2CCN(c3ccc(C(=O)NS(=O)(=O)c4ccc(N[C@H](CCN5CCOCC5)CSc5ccccc5)c(S(=O)(=O)C(F)(F)F)c4)cc3)CC2)C1 + CCN(CC)CCNC(=O)c1c(C)[nH]c(/C=C2\C(=O)Nc3ccc(F)cc32)c1C [sunitinib] (first compound 0.4 µM, partner dose 0.4 µM)",212,102,454,285,622,512,615,585,329,113,563,33.8,102,373,215,88.1,100,87.4,194
"COc1ccc(C2=N[C@@H](c3ccc(Cl)cc3)[C@@H](c3ccc(Cl)cc3)N2C(=O)N2CCNC(=O)C2)c(OC(C)C)c1 [Nutlin-3] + C[C@]1(O)C[C@@H](c2nc(-c3ccc4ccc(-c5ccccc5)nc4c3)c3c(N)nccn32)C1 [OSI906] (first compound 0.1 µM, partner dose 0.4 µM)",310,57.5,119,432,73.4,114,98.1,162,148,159,43.5,61.1,128,57.2,187,21.1,125,127,70.2
"C[C@@H](N)c1ccc(C(=O)Nc2ccnc3[nH]ccc23)cc1 + Nc1ncn([C@H]2C[C@H](O)[C@@H](CO)O2)c(=O)n1 [decitabine] (first compound 0.4 µM, partner dose 0.1 µM)",190,113,224,180,84.7,34.5,102,368,77.3,57.1,80.1,85,198,163,274,187,114,40.3,57.5
"CC(=O)O[C@@]12CO[C@@H]1C[C@H](O)[C@@]1(C)C(=O)[C@H](O)C3=C(C)[C@@H](OC(=O)[C@H](O)[C@@H](NC(=O)OC(C)(C)C)c4ccccc4)C[C@@](O)([C@@H](OC(=O)c4ccccc4)[C@H]21)C3(C)C [Docetaxel] + COc1ccc(Cl)c(Nc2nc3ccccc3nc2NS(=O)(=O)c2cccc(NC(=O)C(C)(C)N)c2)c1 [XL147] (first compound 0.0001 µM, partner dose 0.8 µM)",216,109,2700,2010,87.5,644,160,308,150,214,411,258,147,383,267,102,259,171,138
"C[C@]1(O)C[C@@H](c2nc(-c3ccc4ccc(-c5ccccc5)nc4c3)c3c(N)nccn32)C1 + CNC(=O)c1cc(Oc2ccc(NC(=O)Nc3ccc(Cl)c(C(F)(F)F)c3)cc2)ccn1 [sorafenib] (first compound 0.4 µM, partner dose 0.4 µM)",138,99.7,79.1,487,88.5,118,114,64.9,110,68.4,116,144,111,106,92.1,35.1,52,15.1,116
"CN(c1ncccc1CNc1nc(Nc2ccc3c(c2)CC(=O)N3)ncc1C(F)(F)F)S(C)(=O)=O + O=C(O)[C@@H]1[O][Sb](=[O])([O][Sb]2(=[O])[O][C@H]([C@H](O)CO)[C@H](O)[C@H](C(=O)O)[O]2)[O][C@H]([C@H](O)CO)[C@@H]1O [stibogluconate] (first compound 0.08 µM, partner dose 2 µM)",78.7,63.9,211,184,75.7,72,109,23.3,86.7,78.4,233,88.9,90,88.5,87.5,58.3,99.8,142,62.8
"COc1ccc(C2=N[C@@H](c3ccc(Cl)cc3)[C@@H](c3ccc(Cl)cc3)N2C(=O)N2CCNC(=O)C2)c(OC(C)C)c1 [Nutlin-3] + Cn1c(Nc2ccc(C(F)(F)F)cc2)nc2cc(Oc3ccnc(-c4ncc(C(F)(F)F)[nH]4)c3)ccc21 [CHIR265] (first compound 0.1 µM, partner dose 0.08 µM)",99.6,81.4,138,279,81.1,89,101,204,182,80.3,35.2,122,83.9,172,190,33.6,675,167,240
"COc1ccc(C2=N[C@@H](c3ccc(Cl)cc3)[C@@H](c3ccc(Cl)cc3)N2C(=O)N2CCNC(=O)C2)c(OC(C)C)c1 [Nutlin-3] + CCCCCCCCc1ccc(CCC(N)(CO)CO)cc1 [fingolimod] (first compound 0.1 µM, partner dose 2 µM)",93,33.7,52.1,996,90,28.2,177,54.7,93.5,29.4,107,205,123,133,124,59.7,195,141,149

# Laid out differently: results already given.
Structure (SMILES)	cleaved PARP positive nuclei fraction (501Mel) [%]	cleaved PARP positive nuclei fraction (A101D) [%]	cleaved PARP positive nuclei fraction (A2058) [%]	cleaved PARP positive nuclei fraction (A375) [%]	cleaved PARP positive nuclei fraction (C32) [%]	cleaved PARP positive nuclei fraction (CBRC008) [%]	cleaved PARP positive nuclei fraction (CBRC014) [%]	cleaved PARP positive nuclei fraction (CBRC016) [%]	cleaved PARP positive nuclei fraction (CBRC017) [%]	cleaved PARP positive nuclei fraction (CBRC034) [%]	cleaved PARP positive nuclei fraction (COLO792) [%]	cleaved PARP positive nuclei fraction (COLO800) [%]	cleaved PARP positive nuclei fraction (COLO829) [%]	cleaved PARP positive nuclei fraction (G361) [%]	cleaved PARP positive nuclei fraction (IPC-298) [%]	cleaved PARP positive nuclei fraction (IST-MEL1) [%]	cleaved PARP positive nuclei fraction (LB2518-MEL) [%]	cleaved PARP positive nuclei fraction (LOXIMVI) [%]	cleaved PARP positive nuclei fraction (MEL-HO) [%]
CC1(C)CCC(c2ccc(Cl)cc2)=C(CN2CCN(c3ccc(C(=O)NS(=O)(=O)c4ccc(N[C@H](CCN5CCOCC5)CSc5ccccc5)c(S(=O)(=O)C(F)(F)F)c4)cc3)CC2)C1 + CCN(CC)CCNC(=O)c1c(C)[nH]c(/C=C2\C(=O)Nc3ccc(F)cc32)c1C [sunitinib] (first compound 0.4 µM, partner dose 0.4 µM)	212	102	454	285	622	512	615	585	329	113	563	33.8	102	373	215	88.1	100	87.4	194
COc1ccc(C2=N[C@@H](c3ccc(Cl)cc3)[C@@H](c3ccc(Cl)cc3)N2C(=O)N2CCNC(=O)C2)c(OC(C)C)c1 [Nutlin-3] + C[C@]1(O)C[C@@H](c2nc(-c3ccc4ccc(-c5ccccc5)nc4c3)c3c(N)nccn32)C1 [OSI906] (first compound 0.1 µM, partner dose 0.4 µM)	310	57.5	119	432	73.4	114	98.1	162	148	159	43.5	61.1	128	57.2	187	21.1	125	127	70.2
